Where “and” joins values, the source holds several entries; their conditions need not be identical. Identical values can stand only once. Screen size: about 340,000 compounds; about 170 (0.05%) were called active. The inconclusive results got no clear call from the source; some entries with a clear call stand among them for comparison. Calls come from the whole dose curve; as a rule, active = well fitted inhibition curve with a large enough effect in the signal ratio, with a control signal flat (not every such curve was filed as active); inconclusive = small, poorly fitted or top-dose-only effect, or effect the other way, or a change in a side signal; inactive = flat fitted curve, though single readings scatter; the % refers to the signal ratio. Where the call is inconclusive, the potency comes from a doubtful curve fit.
assay: qHTS Assay to Find Inhibitors of Chronic Active B-Cell Receptor Signaling; details: ABC-DLBCL IkBa-CBG/CBR reporter, luminescence ratio (green luciferase fused to IkBa over red control in TMD8 lymphoma cells), 4 h; activity change, negative = inhibition: at 46.1 µM (top of the series) unless noted;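 for activity change, negative = inhibition: plate controls were basal doxycycline-induced cells for no effect and cells given 10 µM MG132 for full effect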
Procedure, shortened: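 Compounds up to 46 uM were incubated four hours with TMD8 cells whose green CBG68 luciferase is fused to IkappaBalpha; red CBR luminescence normalised the signal, and concentration-effect curves were fitted to fusion, red and ratio data.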
Potency is the fitted concentration of half-maximal effect.

| SMILES | activity change, negative = inhibition | Potency |
| --- | --- | --- |
| CCC(=O)Nc1nnc(SCC(=O)N2c3ccccc3CC2C)s1 (stereo unspecified) | inconclusive: 3.51% |  |
| CC1CN(C(=O)CCC(=O)N2CCOCC2)c2ccccc2O1 (stereo unspecified) | inconclusive: 12.6% |  |
| NNC(=O)c1cc2ccccc2cc1NS(=O)(=O)c1ccccc1 | inconclusive: 5.09% |  |
| COCC(C)NC(=O)c1cc2cccc([N+](=O)[O-])c2[nH]1 (stereo unspecified) | inactive |  |
| Cc1cc(C)nc(SCc2ccc(C(=O)N/N=C3\CC(C)CC(C)(C)C3)cc2)n1 (stereo unspecified) | inconclusive: 0.249% |  |
| COc1cc2c(C#N)c(N3CCCCC3)nc(N)c2c(N)n1 | inconclusive: 2.98% |  |
| CN(CC(=O)N1CCN(Cc2ccccc2)CC1)S(=O)(=O)c1cccc2nsnc12 | inactive |  |
| O=C(Nc1cccc(NC(=O)c2cccs2)c1)c1ccc(F)cc1 | inconclusive: -21.1% |  |
| O=C(O)CCC(=O)N1CCc2cc(S(=O)(=O)N3CCC(Cc4ccccc4)CC3)ccc21 | inconclusive: -15.6% |  |
| O=C(CSC1=NS(=O)(=O)c2ccccc2N1)c1ccccc1 |  | inconclusive: 4.11 µM [falling, partial curve] |
| CC[N+](C)(CC)CCOC(=O)C(O)(c1ccccc1)C1CCCCC1 (stereo unspecified) | inactive |  |
| COc1ccc(CN(C(=O)Nc2cccc(OC)c2)C2CCN(C(C)=O)CC2)cc1 | inactive |  |
| C/C(CC(=O)Nc1ccc2ccccc2c1)=N\NC(=O)c1ccc(O)c(O)c1 |  | inconclusive: 3.98 µM [rising, full curve, poor fit] |
| O=C(C(Cl)Cl)N1c2ccccc2OCC1c1ccccc1 (stereo unspecified) | inactive |  |
| Cn1nc(C(=O)Nc2cc(Cl)ccc2N2CCCC2)c2ccccc2c1=O | inconclusive: 0.381% |  |
| O=C(Nc1ccc(S(=O)(=O)N2CCOCC2)cc1)c1cccs1 | inactive |  |
| COc1ccccc1NC(=O)NCc1ccc(C)n1C | inconclusive: -4.17% |  |
| CCN(Cc1ccccc1)C(=O)c1[nH]c2ccc(OC)cc2c1C | inconclusive: 2.18% |  |
| COc1ccccc1CNC(=O)C(=O)NCC(c1ccco1)N1CCOCC1 (stereo unspecified) |  | inconclusive: 20 µM [falling, single point] |
| CSc1nc(N)n2nc(-c3ccccc3)cc2n1 |  | inconclusive: 22.4 µM [falling, single point] |
| CCN(CC(=O)NCc1ccccc1Cl)CC(=O)Nc1c(F)cccc1F | inconclusive: -22.8% |  |
| CCCOc1ccc(C2=NNC(=O)CC2)cc1 | inconclusive: 13.8% |  |

| SMILES | activity change, negative = inhibition | Potency |
| --- | --- | --- |
| COc1cc(NC(=O)NCCN2CCN(c3ccc(Cl)cc3)CC2)ccc1C | inactive |  |
| CCOc1ccc(S(=O)(=O)Nc2cccc(C)c2)c2cccnc12 | inactive |  |
| COc1cccc(/C=N/NC(=O)c2cc(-c3cccn3C)n[nH]2)c1 | inconclusive: -16.1% |  |
| Cc1nc(NC(=O)CSc2nnc(C3CC3)n2C)sc1C | inconclusive: -0.877% |  |
| CC(C(=O)Nc1sc2c(c1C(=O)NCC1CCCO1)CCC2)N1C(=O)c2ccccc2C1=O (stereo unspecified) | inconclusive: 12.4% |  |
| CCOC(=O)c1cc(C#N)c(=S)[nH]c1C | inconclusive: -10.1% |  |
| COc1cc(/C=C/C(=O)OC(C)C(=O)Nc2c(C)n(C)n(-c3ccccc3)c2=O)ccc1O (stereo unspecified) | inactive |  |
| O=C1Nc2ccccc2C12Nc1ccccc1S2 (stereo unspecified) | inconclusive: 4.68% |  |
| COc1cc(C(=O)Nc2cc(Cl)ccc2C)c(-n2cnnn2)cc1OC | inconclusive: 5.17% |  |
| CCc1ccccc1NC(=O)Cc1cn(C)c2ccccc12 | inconclusive: -119% |  |
| COc1cc(Br)c(CN2C(=O)NC3(CCCCCC3)C2=O)cc1OC | inactive |  |
| Cc1onc(-c2ccccc2)c1NC(=O)N(CCC#N)Cc1ccccc1 | inconclusive: -7.41% |  |
| CCc1ccc(-c2cc(C)no2)cc1S(=O)(=O)NCCN1CCC(C)CC1 | inconclusive: 0.596% |  |
| COC(=O)c1cc(Cl)nc2ccccc12 | inconclusive: -1.33% |  |
| Cc1ccc(C(CC(=O)O)NC(=O)c2ccc(S(=O)(=O)N3CC(C)OC(C)C3)cc2)cc1 (stereo unspecified) | inactive |  |
| COc1ccc(C(=O)Nc2ccc(Cl)c(S(=O)(=O)N3CCOCC3)c2)cc1 |  | inconclusive: 16.4 µM [falling, partial curve, poor fit] |
| O=C(Cc1ccc(Br)cc1)c1ccc(O)cc1O | inconclusive: 4.91% |  |
| COc1ccc(CCNC(=O)Cn2c(=O)cnc3ccccc32)cc1 |  | inconclusive: 11.2 µM [falling, partial curve] |
| COc1cc(/C=N/NC(=O)c2cccc(S(=O)(=O)N3CCCC3)c2)cc(OC)c1O |  | inconclusive: 25.9 µM [falling, single point] |
| CCOc1ccc(N=c2scc(-c3ccc(OC)cc3)n2CCO)cc1 |  | inconclusive: 29.1 µM [falling, single point] |
| C/C=C/c1ccc(OCCCCN2CC(C)CC(C)C2)c(OC)c1 (stereo unspecified) |  | inconclusive: 12.6 µM [falling, partial curve, poor fit] |
| Cc1ccc(O)c(/C=N/NC(=O)COc2ccc3c(C)cc(=O)oc3c2)c1 | inconclusive: 7.28% |  |

| SMILES | activity change, negative = inhibition | Potency |
| --- | --- | --- |
| COc1ccc(CCNS(=O)(=O)c2ccc(F)c(C(=O)Nc3ccc(Cl)cc3)c2)cc1OC | inconclusive: -12.8% |  |
| COc1ccc(CCN2C(=O)CN=C2Nc2ccc(F)cc2)cc1OC | inconclusive: -0.701% |  |
| CCC1(C)NC(C(=O)O)Cc2c1[nH]c1ccccc21 (stereo unspecified) | inactive |  |
| O=C(CNC(=O)C1COc2ccccc2O1)N/N=C/c1ccc(O)cc1O (stereo unspecified) | inconclusive: 8.73% |  |
| COc1cccc(NC(=O)CSc2nc(=O)n(Cc3ccncc3)c3c2CCCC3)c1 | inconclusive: -0.942% |  |
| COc1ccc(S(=O)(=O)N2CCOCC2)cc1NC(=O)[C@@H]1CCCN1C(=O)c1cccs1 | inactive |  |
| Nn1c(Cc2cccc3ccccc23)nnc1SCc1ccc(Cl)c(Cl)c1 | inconclusive: -4.83% |  |
| CCCOC1CCCN(Cc2nc(-c3ccc(C(=O)OC)cc3)no2)C1 (stereo unspecified) | inactive |  |
| COC(=O)c1cccc(C#CC(NP(=O)(c2ccccc2)c2ccccc2)c2ccccc2)c1 (stereo unspecified) |  | inconclusive: 14.1 µM [falling, partial curve] |
| O=C(c1cc2sccc2n1Cc1ccccc1)N1CCN(c2nc3ccccc3s2)CC1 | inconclusive: 7.49% |  |
| COc1ccc(OC)c(NC(=O)c2sc3nc(Cc4ccccc4)cc(C(F)(F)F)c3c2N)c1 | inactive |  |
| COc1ccc([C@H]2CC(=O)C=C(c3ccccc3OC)C2)cc1OC | inactive |  |
| CCc1c(C(=O)N/N=C/c2ccc(C)o2)csc1C | inconclusive: -12.3% |  |
| O=[N+]([O-])c1ccc(N2CCc3ccccc3C2)nc1 | inactive |  |
| Cn1c(NCCCO)nc2c(c1=O)C1(CCCCC1)Cc1ccccc1-2 | inconclusive: -2.91% |  |
| c1ccc(-c2cc(CSc3nc4ccccc4[nH]3)on2)cc1 | inconclusive: 14% |  |
| COc1ccc(-c2noc(CCC(=O)N3CCN(c4ccccc4OC)CC3)n2)cc1 | inactive |  |
| CCC1(C)N=C(N)Nc2nc3cc(C)c(C)cc3n21 (stereo unspecified) | inconclusive: -20.1% |  |
| c1cc(Nc2cccc3nccnc23)c2nccnc2c1 | inconclusive: -16% |  |
| CC1CCCC(C)N1C(=O)COC(=O)c1ccccc1O (stereo unspecified) | inconclusive: 11.2% |  |
| CCC(=O)Nc1ccccc1-c1nnn(CC(=O)N2c3ccccc3CC2C)n1 (stereo unspecified) | inconclusive: -2.9% |  |
| CC1CCCCN1CC(O)COCCC12CC3CC(CC(C3)C1)C2 (stereo unspecified) | inactive |  |

| SMILES | activity change, negative = inhibition | Potency |
| --- | --- | --- |
| O=C(C1=C[C@H](C2CCCCC2)C[C@H](OCCCCO)O1)N1CCOCC1 | inconclusive: 5.44% |  |
| O=C(NNC(=O)c1nc(Cl)ccc1Cl)c1ccc(F)cc1 | inconclusive: -2.82% |  |
| Cc1[nH]c2ccccc2c1C(=O)C(=O)N1CCCc2ccccc21 | inconclusive: 7.47% |  |
| Cc1ccc(S(=O)(=O)CCC(=O)Nc2sccc2C(N)=O)cc1 | inconclusive: -2.4% |  |
| CC(=O)CSc1ncnc2sc3c(c12)CCC3 | inconclusive: -5.15% |  |
| CCOC(=O)C(C)Oc1ccc(OCc2ccccc2)cc1 (stereo unspecified) | inconclusive: -1.68% |  |
| COC(=O)c1ccc2c(c1)NC1=C(C(=O)CC(C)(C)C1)C(c1ccncc1)N2 (stereo unspecified) | inconclusive: 6.8% |  |
| COCCNC(=O)NC(=O)COC(=O)Cc1ccc2c(c1)OCCO2 | inconclusive: 3.6% |  |
| O=C(CSc1nc2c(c(=O)[nH]1)CCC2)Nc1ccc(F)cc1 | inconclusive: -11.9% |  |
| O=C(c1ccco1)N1CCN(c2nc(C(F)(F)F)nc3c2nnn3Cc2ccccc2)CC1 | inconclusive: 11.2% |  |
| Cc1ccc(/C=C/C(=O)OCC(=O)NCc2cccs2)o1 | inactive |  |
| Cc1ccc(S(=O)(=O)NCC(=O)N2CCc3ccccc3C2)cc1 | inactive |  |
| CC(=O)N1CCN(CC(=O)Nc2ccccc2Sc2ccccc2)CC1 | inactive |  |
| COc1ccc(CCNC(=O)[C@H](C)N2C(=O)N3CCc4c([nH]c5ccccc45)[C@@]3(C)C2=O)cc1OC | inactive |  |
| CCCN(Cc1nnc(-c2ccccc2Cl)o1)C(=O)c1cc([N+](=O)[O-])cc([N+](=O)[O-])c1 |  | inconclusive: 17.8 µM [falling, partial curve, poor fit] |
| COc1cc(NC(=O)C/C(C)=N/NC(=O)C(=O)NCCO)c(OC)cc1Cl |  | inconclusive: 20 µM [falling, single point] |
| COC(=O)C1=C(C)NC(C)=C([N+](=O)[O-])C1c1ccccc1C(F)(F)F (stereo unspecified) | inconclusive: -0.443% and inconclusive: 1.63% |  |
| CCc1c(O)nc(SC2CC(=O)N(c3ccccc3)C2=O)[nH]c1=O (stereo unspecified) | inconclusive: 17.1% |  |
| CN1CCN(C(=O)C2CCC(=O)N(CCc3cccc(F)c3)C2)CC1 (stereo unspecified) | inconclusive: 0.573% |  |
| Nc1nc(SCC(=O)NCCC(c2ccccc2)c2ccccc2)n[nH]1 | inconclusive: -11% |  |

From PubChem BioAssay AID493014 (National Center for Advancing Translational Sciences (NCATS), 2011)
